Reference: PubChem BioAssay AID1671190 (National Center for Advancing Translational Sciences (NCATS), 2021)
About 6,100 (1.1%) of roughly 580,000 compounds were called active. This list was built around the results that the source calls inconclusive (neither active nor inactive); the mix of calls is not that of the screen. Calls follow the shape of the dose curve; as a rule, active = well fitted inhibition curve with a large enough effect; inconclusive = small, poorly fitted or top-dose-only effect, or another doubt; inactive = no such curve, though single readings can be large or run the other way. A potency beside an inconclusive call is a rough fit, not a confirmed value.

Amino acid sequences for entries named in this document (tags omitted). A change or cut given only in a name is not applied to a line headed by its entry.
UniProt P18054: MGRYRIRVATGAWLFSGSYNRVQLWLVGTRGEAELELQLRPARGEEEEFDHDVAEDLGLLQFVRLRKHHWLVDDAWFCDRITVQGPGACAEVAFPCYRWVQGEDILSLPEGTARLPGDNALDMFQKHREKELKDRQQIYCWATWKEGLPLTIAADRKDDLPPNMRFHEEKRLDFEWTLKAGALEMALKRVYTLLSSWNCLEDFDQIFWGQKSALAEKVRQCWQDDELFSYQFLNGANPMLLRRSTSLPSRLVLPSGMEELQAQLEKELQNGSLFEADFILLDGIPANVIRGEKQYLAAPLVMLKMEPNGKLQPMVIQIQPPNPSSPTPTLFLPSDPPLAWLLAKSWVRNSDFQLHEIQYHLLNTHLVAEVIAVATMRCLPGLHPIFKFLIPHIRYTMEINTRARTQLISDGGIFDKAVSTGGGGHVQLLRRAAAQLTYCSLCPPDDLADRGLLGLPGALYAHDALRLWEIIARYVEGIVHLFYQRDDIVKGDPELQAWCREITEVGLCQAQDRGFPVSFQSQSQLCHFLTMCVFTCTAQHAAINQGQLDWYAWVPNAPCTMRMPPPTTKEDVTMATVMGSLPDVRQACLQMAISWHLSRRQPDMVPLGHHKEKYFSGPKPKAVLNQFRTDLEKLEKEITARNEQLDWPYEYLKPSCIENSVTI

Biological target: Polyunsaturated fatty acid lipoxygenase ALOX12 (Homo sapiens) (UniProt P18054)
Assay: Primary qHTS assay for inhibitors of human arachidonate 12S-lipoxygenase (ALOX12): Round 2
Details: purified 12hLO, xylenol orange hydroperoxide absorbance; activity change, negative = inhibition: at 108 µM (top of the series) unless noted
In short: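 Purified human 12hLO (150 nM final) in 25 mM Hepes, 0.01% Triton X-100, pH 7.0 was preincubated 15 min at room temperature with compound. Then 40 uM arachidonic acid was added, 30 min. Hydroperoxide was read by Fe-XO absorbance ratio 573/405 nm.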
% is scaled to controls: 0 for no effect and ±100 for the full control effect; potency is read from the fitted curve at half-maximal effect.

Row | Compound | Potency | activity change, negative = inhibition
1 | O=C(O)c1nnn(-c2cccc(F)c2)c1C(F)(F)F | inconclusive: 0.355 µM [inhibitor, full curve, poor fit] | –
2 | COc1ccc(-c2nc3ccc(C)cn3c2Cc2cccc(Cl)c2)cc1OC | inconclusive: 39.8 µM [inhibitor, partial curve, poor fit] | –
3 | CCOC(=O)/C(O)=C(\C#N)c1nc2ccccc2[nH]1 | inactive | –
4 | S=c1nc(-c2ccc(Br)cc2)oc2c1CCCC2 | inconclusive: 31.6 µM [inhibitor, single point] | –
5 | Cc1cccc(-c2noc([C@@H]3C[C@@H](O)CN3Cc3ccc(Cl)cc3)n2)c1 | inconclusive: 39.8 µM [inhibitor, full curve] | –
6 | CC(C)N1CCN(C(=O)c2ccc(NC(=O)c3ccc(Br)o3)cc2)CC1 | inconclusive: 31.6 µM [inhibitor, single point] | –
7 | C=C(c1ccc(O)cc1)c1ccc(O)cc1 | inconclusive: 10 µM [inhibitor, partial curve, poor fit] | –
8 | COC(=O)[C@]1(C)N[C@H](CN(C)C(=O)C2CCCCC2)[C@@H]2C(=O)N(C)C(=O)[C@@H]21 | inconclusive: 158 µM [inhibitor, single point] | –
9 | CCCCCCCCCCCCCCCC[n+]1ccc(/C=N/O)cc1 | inconclusive: 50.1 µM [inhibitor, partial curve, poor fit] | –
10 | Cc1nnc(NC(=O)c2ccc(-c3cccc(C(F)(F)F)c3)o2)s1 | inconclusive: 44.7 µM [inhibitor, partial curve, poor fit] | –
11 | CCOc1ccc2c(c1)OC(c1ccc(C)cc1)(C(F)(F)F)NC2=O (stereo not given) | inactive | –
12 | COc1ccc(CNC(=O)CSc2nnc(C)n2C2CC2)cc1 | inactive | –
13 | O=C(C1CC1)N1CCc2cc(Br)cc(S(=O)(=O)Nc3ccc(C(F)(F)F)cc3)c21 | inactive | –
14 | CCSc1nnc(NC(=O)C2CCN(C(=O)c3ccc(F)cc3)CC2)s1 | inactive | –
15 | CCOC(=O)C1=CN(Cc2cccc(F)c2)S(=O)(=O)NC1c1ccc(Br)cc1F (stereo not given) | inconclusive: 39.8 µM [inhibitor, partial curve, poor fit] | –
16 | Fc1ccc2cnc(-c3ccccc3)c(-c3cccc(C(F)(F)F)c3)c2c1 | inactive | –
17 | CC(C)CC(=O)NC(=S)Nc1cccc(NC(=O)c2ccccc2Cl)c1 | inconclusive: 35.5 µM [inhibitor, partial curve, poor fit] | –
18 | Cn1c(=O)c2nc(SCC(=O)NCc3ccc(Cl)cc3)n(C)c2n(C)c1=O | inconclusive: 44.7 µM [inhibitor, partial curve, poor fit] | –
19 | O=C(Nc1nc2ccccc2s1)c1ccccc1 | inactive | –
20 | C=CCn1c(CCC(=O)O)ccc1-c1ccc(OC)cc1 | inconclusive: 44.7 µM [inhibitor, partial curve, poor fit] | –
21 | O=C(O)CNC(=S)NCc1ccccc1 | inactive | –
22 | CC(=O)c1ccc(C(=O)N(C)Cc2ccc(C)cc2C)s1 | inconclusive: 50.1 µM [inhibitor, partial curve, poor fit] | –
23 | CCn1cc(/C=C(\NC(=O)c2ccc(OC)cc2)C(=O)N2CCN(C)CC2)c2ccccc21 | inconclusive: 5.01 µM [inhibitor, full curve, poor fit] | –
24 | O=S(=O)(Nc1cc(Cl)ccc1-n1cncn1)c1cc(Br)ccc1Br | inconclusive: 39.8 µM [inhibitor, partial curve, poor fit] | –

3 structures already listed, ordered by length of the SMILES, smallest number first:
Row | Compound | Potency | activity change, negative = inhibition
2 | COc1ccc(-c2nc3ccc(C)cn3c2Cc2cccc(Cl)c2)cc1OC | inconclusive: 39.8 µM [inhibitor, partial curve, poor fit] | –
15 | CCOC(=O)C1=CN(Cc2cccc(F)c2)S(=O)(=O)NC1c1ccc(Br)cc1F (stereo not given) | inconclusive: 39.8 µM [inhibitor, partial curve, poor fit] | –
8 | COC(=O)[C@]1(C)N[C@H](CN(C)C(=O)C2CCCCC2)[C@@H]2C(=O)N(C)C(=O)[C@@H]21 | inconclusive: 158 µM [inhibitor, single point] | –

(cont.)

Row | Compound | Potency | activity change, negative = inhibition
25 | C=CCn1c(O)c(C2=c3ccccc3=NC2=O)c2ccccc21 | inactive | –
26 | Cc1c(C=O)c2ccccn2c1C(=O)c1ccccc1Cl | inactive | –
27 | O=C(Nc1ccc(N2CCN(C(=O)c3ccco3)CC2)cc1)c1ccccc1F | inconclusive: 100 µM [inhibitor, single point] | –
28 | O=C(c1ccc2c3c(cccc13)CC2)C1CCCN(C(=O)c2ccc(=O)[nH]c2)C1 (stereo not given) | inconclusive: 50.1 µM [inhibitor, partial curve, poor fit] | –
29 | O=S1(=O)CC(N2CCN(CC3CC3)CC2)CN1Cc1cn(Cc2ccccc2C(F)(F)F)nn1 (stereo not given) | inconclusive: 70.8 µM [inhibitor, partial curve, poor fit] | –
30 | CCc1cc(=O)n(CC(=O)Nc2cccc(NC(C)=O)c2)c(-n2nc(C)cc2C)n1 | inactive | –
31 | O=C(O)c1cccc(CSc2nc(-c3ccc(Cl)cc3)cc(C(F)(F)F)n2)c1 | inconclusive: 44.7 µM [inhibitor, partial curve, poor fit] | –
32 | O=C(Nc1ccc(Cl)cc1)c1cccc(S(=O)(=O)C2CCS(=O)(=O)C2)c1 (stereo not given) | inactive | –
33 | CN(C)/C=C(/C(=O)c1ccc(Cl)cc1Cl)S(=O)(=O)c1ccc(Cl)cc1 | inconclusive: 2.51 µM [inhibitor, partial curve, poor fit] | –
34 | CC(COc1ccc(C#N)c(F)c1)CN1CCC(C(O)(c2ccccc2)c2ccccc2)CC1 (stereo not given) | inconclusive: 79.4 µM [inhibitor, single point] | –
35 | CN1CCN(c2cc(C(=O)Nc3ccc4c(c3)-c3c(c(C(N)=O)nn3-c3ccc(F)cc3)CC4)c(Cl)cn2)CC1 | inconclusive: 15.3 µM [inhibitor, partial curve, poor fit] | –
36 | CCC1(CC)Cc2ccccc2-c2nc(CN3CCCC3)[nH]c(=O)c21 | inactive | –
37 | CC(=O)c1c(Cl)nc2ccccc2c1-c1ccccc1 | inactive | –
38 | O=C(O)/C=C/c1nccs1 | inactive | –
39 | COc1ccc(C(CC(=O)NCc2cccnc2)Sc2n[nH]c(-c3ccc(F)cc3)n2)cc1 (stereo not given) | inconclusive: 31.6 µM [inhibitor, partial curve, poor fit] | –
40 | C=CCNc1oc(COc2ccc(Br)cc2)nc1C#N | inactive | –
41 | CCc1ccc(S(=O)(=O)Nc2ccc3oc(C)c(C(=O)OCCOC)c3c2)cc1 | – | inconclusive: -34.2% [inhibitor]
42 | COc1ccccc1NC(=O)Cc1nc(CCl)cs1 | active: 39.8 µM | –
43 | CCN1C(=O)NC(c2ccccc2)C1=O (stereo not given) | inactive | –
44 | CCNC(=S)N1CCN(C(c2ccccc2)c2ccccc2)CC1 | inactive | –
45 | c1ccc(CSc2nnc(-c3ccco3)o2)cc1 | inconclusive: 141 µM [inhibitor, single point] | –
46 | COc1cc(Cl)c(C)cc1NC(=O)c1ccc(-n2cccn2)cc1 | inactive | –
47 | CC(C)(C)C1CCC2(CC1)NC(=O)N(CC(=O)NC1CCCCC1)C2=O (stereo not given) | inconclusive: 5.01 µM [inhibitor, partial curve, poor fit] | –
48 | Cc1ccc(C(C)C)c(OCCNC(=O)c2ccccc2O)c1 | inconclusive: 44.7 µM [inhibitor, partial curve, poor fit] | –

Row | Compound | Potency | activity change, negative = inhibition
49 | COc1ccc(CNC(=O)c2ccccc2SC)cc1 | inconclusive: 39.8 µM [inhibitor, partial curve, poor fit] | –
50 | COc1ccc(CNC(=O)C2CCN(S(=O)(=O)Cc3ccccc3)CC2)cc1 | inactive | –
51 | N#Cc1c(NC(=O)CCn2nnc(-c3ccc(Br)cc3)n2)sc2c1CCCC2 | inconclusive: 56.2 µM [inhibitor, partial curve, poor fit] | –
52 | O=C1CN(c2nc3ccccc3n3cnnc23)CC(=O)N1CCc1ccccc1 | inconclusive: 2.82 µM [inhibitor, full curve, poor fit] | –
53 | Cc1cccc(-c2sc(Nc3ccccc3)n[n+]2-c2ccc(F)cc2)c1 | inconclusive: 44.7 µM [inhibitor, partial curve, poor fit] | –
54 | O=C(COc1cccc2ccccc12)N/N=C/c1ccccc1OCc1ccc(C(=O)O)cc1 | inactive | –
55 | CCCC1=Nc2cc(C(=O)NCCN3CCCC3)ccc2Sc2ccccc21 | inconclusive: 50.1 µM [inhibitor, partial curve, poor fit] | –
56 | CCOC(=O)c1sc(=S)n(C)c1NC(=O)c1ccccc1 | inconclusive: 39.8 µM [inhibitor, partial curve] | –
57 | COCCOc1cc(NC(=O)c2sccc2Oc2ccc([N+](=O)[O-])cc2F)c(Cl)cc1Cl | inactive | –
58 | CCn1cc(-c2ccc(OC)cc2)cc1C(=O)O | inactive | –
59 | Brc1ccccc1/C=N/N(c1ccccc1)c1ccccc1 | inactive | –
60 | O=C(N[C@H]1CO[C@H]2[C@@H]1OC[C@@H]2Nc1nccc(-c2ccc(-c3ccccc3)cc2)n1)C1CCCCC1 | inactive | –
61 | COC(=O)c1ccc(COC(=O)COc2ccc(Cl)cc2C)cc1 | inconclusive: 126 µM [inhibitor, partial curve, poor fit] | –
62 | Cc1ccc(-c2nc(CNS(=O)(=O)c3ccc(C)cc3)c(C)o2)cc1 | inactive | –
63 | COc1ccc2c3c(n(C)c2c1)[C@H](CO)N(C(C)=O)CC31CCN(C(=O)C2CCOCC2)CC1 | inactive | –
64 | CC(C)(C)c1ccc(OC(=O)Nc2ccc(O)c(C(=O)O)c2)cc1 | inconclusive: 44.7 µM [inhibitor, partial curve, poor fit] | –
65 | CCN(CC)S(=O)(=O)c1ccc(N2CCN(C)CC2)c(NC(=O)COc2ccc(F)cc2Cl)c1 | inconclusive: 79.4 µM [inhibitor, partial curve, poor fit] | –
66 | NC1=NC[C@@H](Cc2ccc(O)cc2)N1CCc1cccc(F)c1 | inconclusive: 44.7 µM [inhibitor, partial curve, poor fit] | –
67 | COc1ccc(NC(=O)c2ccc(-c3nc(CSc4ccccc4)c(C)o3)cc2)c(OC)c1 | – | inconclusive: -41.2% [inhibitor]
68 | CCN1CCC2(Cc3ccccc3CN(C(=O)c3cccc(Cl)c3)C2)C1 (stereo not given) | inconclusive: 56.2 µM [inhibitor, partial curve, poor fit] | –
69 | CCOc1ccccc1NC(=O)C(c1ccccc1)N1CCN(CC(=O)N2CCCC2)CC1 (stereo not given) | inactive | –
70 | COc1cc(/C=N/Nc2ccccc2C(F)(F)F)ccc1O | inconclusive: 50.1 µM [inhibitor, partial curve, poor fit] | –
